The test deals with T1, HA-GRHL3 (UniProt Q8TE85).
T1 sequence: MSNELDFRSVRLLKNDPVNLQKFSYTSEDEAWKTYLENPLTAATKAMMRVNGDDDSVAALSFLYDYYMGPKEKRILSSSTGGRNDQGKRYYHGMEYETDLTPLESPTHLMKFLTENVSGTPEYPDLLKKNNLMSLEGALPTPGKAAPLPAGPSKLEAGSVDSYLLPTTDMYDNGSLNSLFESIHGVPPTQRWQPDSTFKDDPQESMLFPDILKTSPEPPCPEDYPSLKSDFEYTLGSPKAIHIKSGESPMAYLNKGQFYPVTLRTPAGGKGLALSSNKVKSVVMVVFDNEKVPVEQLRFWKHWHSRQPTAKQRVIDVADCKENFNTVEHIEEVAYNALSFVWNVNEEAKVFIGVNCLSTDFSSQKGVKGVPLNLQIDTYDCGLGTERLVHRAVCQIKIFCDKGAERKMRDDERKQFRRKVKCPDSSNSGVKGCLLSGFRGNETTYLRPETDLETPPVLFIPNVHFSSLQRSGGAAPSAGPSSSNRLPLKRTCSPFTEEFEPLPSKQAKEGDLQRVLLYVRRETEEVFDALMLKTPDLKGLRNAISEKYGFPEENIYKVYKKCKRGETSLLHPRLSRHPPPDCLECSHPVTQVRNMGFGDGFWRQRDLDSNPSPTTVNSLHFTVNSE
Nature of the test: co-IP; extracts of 293T cells 2 days after transfection with HA-GRHL3; 1% NP-40 lysis buffer; 5 ug antibody (MLL2, WDR5 or HA; IgG control) overnight at 4C, protein A Dynabeads, washed in PBS; Western blot.

Protein sequences, listed by entry. Tags and fused reporters are not part of them.
UniProt Q03164: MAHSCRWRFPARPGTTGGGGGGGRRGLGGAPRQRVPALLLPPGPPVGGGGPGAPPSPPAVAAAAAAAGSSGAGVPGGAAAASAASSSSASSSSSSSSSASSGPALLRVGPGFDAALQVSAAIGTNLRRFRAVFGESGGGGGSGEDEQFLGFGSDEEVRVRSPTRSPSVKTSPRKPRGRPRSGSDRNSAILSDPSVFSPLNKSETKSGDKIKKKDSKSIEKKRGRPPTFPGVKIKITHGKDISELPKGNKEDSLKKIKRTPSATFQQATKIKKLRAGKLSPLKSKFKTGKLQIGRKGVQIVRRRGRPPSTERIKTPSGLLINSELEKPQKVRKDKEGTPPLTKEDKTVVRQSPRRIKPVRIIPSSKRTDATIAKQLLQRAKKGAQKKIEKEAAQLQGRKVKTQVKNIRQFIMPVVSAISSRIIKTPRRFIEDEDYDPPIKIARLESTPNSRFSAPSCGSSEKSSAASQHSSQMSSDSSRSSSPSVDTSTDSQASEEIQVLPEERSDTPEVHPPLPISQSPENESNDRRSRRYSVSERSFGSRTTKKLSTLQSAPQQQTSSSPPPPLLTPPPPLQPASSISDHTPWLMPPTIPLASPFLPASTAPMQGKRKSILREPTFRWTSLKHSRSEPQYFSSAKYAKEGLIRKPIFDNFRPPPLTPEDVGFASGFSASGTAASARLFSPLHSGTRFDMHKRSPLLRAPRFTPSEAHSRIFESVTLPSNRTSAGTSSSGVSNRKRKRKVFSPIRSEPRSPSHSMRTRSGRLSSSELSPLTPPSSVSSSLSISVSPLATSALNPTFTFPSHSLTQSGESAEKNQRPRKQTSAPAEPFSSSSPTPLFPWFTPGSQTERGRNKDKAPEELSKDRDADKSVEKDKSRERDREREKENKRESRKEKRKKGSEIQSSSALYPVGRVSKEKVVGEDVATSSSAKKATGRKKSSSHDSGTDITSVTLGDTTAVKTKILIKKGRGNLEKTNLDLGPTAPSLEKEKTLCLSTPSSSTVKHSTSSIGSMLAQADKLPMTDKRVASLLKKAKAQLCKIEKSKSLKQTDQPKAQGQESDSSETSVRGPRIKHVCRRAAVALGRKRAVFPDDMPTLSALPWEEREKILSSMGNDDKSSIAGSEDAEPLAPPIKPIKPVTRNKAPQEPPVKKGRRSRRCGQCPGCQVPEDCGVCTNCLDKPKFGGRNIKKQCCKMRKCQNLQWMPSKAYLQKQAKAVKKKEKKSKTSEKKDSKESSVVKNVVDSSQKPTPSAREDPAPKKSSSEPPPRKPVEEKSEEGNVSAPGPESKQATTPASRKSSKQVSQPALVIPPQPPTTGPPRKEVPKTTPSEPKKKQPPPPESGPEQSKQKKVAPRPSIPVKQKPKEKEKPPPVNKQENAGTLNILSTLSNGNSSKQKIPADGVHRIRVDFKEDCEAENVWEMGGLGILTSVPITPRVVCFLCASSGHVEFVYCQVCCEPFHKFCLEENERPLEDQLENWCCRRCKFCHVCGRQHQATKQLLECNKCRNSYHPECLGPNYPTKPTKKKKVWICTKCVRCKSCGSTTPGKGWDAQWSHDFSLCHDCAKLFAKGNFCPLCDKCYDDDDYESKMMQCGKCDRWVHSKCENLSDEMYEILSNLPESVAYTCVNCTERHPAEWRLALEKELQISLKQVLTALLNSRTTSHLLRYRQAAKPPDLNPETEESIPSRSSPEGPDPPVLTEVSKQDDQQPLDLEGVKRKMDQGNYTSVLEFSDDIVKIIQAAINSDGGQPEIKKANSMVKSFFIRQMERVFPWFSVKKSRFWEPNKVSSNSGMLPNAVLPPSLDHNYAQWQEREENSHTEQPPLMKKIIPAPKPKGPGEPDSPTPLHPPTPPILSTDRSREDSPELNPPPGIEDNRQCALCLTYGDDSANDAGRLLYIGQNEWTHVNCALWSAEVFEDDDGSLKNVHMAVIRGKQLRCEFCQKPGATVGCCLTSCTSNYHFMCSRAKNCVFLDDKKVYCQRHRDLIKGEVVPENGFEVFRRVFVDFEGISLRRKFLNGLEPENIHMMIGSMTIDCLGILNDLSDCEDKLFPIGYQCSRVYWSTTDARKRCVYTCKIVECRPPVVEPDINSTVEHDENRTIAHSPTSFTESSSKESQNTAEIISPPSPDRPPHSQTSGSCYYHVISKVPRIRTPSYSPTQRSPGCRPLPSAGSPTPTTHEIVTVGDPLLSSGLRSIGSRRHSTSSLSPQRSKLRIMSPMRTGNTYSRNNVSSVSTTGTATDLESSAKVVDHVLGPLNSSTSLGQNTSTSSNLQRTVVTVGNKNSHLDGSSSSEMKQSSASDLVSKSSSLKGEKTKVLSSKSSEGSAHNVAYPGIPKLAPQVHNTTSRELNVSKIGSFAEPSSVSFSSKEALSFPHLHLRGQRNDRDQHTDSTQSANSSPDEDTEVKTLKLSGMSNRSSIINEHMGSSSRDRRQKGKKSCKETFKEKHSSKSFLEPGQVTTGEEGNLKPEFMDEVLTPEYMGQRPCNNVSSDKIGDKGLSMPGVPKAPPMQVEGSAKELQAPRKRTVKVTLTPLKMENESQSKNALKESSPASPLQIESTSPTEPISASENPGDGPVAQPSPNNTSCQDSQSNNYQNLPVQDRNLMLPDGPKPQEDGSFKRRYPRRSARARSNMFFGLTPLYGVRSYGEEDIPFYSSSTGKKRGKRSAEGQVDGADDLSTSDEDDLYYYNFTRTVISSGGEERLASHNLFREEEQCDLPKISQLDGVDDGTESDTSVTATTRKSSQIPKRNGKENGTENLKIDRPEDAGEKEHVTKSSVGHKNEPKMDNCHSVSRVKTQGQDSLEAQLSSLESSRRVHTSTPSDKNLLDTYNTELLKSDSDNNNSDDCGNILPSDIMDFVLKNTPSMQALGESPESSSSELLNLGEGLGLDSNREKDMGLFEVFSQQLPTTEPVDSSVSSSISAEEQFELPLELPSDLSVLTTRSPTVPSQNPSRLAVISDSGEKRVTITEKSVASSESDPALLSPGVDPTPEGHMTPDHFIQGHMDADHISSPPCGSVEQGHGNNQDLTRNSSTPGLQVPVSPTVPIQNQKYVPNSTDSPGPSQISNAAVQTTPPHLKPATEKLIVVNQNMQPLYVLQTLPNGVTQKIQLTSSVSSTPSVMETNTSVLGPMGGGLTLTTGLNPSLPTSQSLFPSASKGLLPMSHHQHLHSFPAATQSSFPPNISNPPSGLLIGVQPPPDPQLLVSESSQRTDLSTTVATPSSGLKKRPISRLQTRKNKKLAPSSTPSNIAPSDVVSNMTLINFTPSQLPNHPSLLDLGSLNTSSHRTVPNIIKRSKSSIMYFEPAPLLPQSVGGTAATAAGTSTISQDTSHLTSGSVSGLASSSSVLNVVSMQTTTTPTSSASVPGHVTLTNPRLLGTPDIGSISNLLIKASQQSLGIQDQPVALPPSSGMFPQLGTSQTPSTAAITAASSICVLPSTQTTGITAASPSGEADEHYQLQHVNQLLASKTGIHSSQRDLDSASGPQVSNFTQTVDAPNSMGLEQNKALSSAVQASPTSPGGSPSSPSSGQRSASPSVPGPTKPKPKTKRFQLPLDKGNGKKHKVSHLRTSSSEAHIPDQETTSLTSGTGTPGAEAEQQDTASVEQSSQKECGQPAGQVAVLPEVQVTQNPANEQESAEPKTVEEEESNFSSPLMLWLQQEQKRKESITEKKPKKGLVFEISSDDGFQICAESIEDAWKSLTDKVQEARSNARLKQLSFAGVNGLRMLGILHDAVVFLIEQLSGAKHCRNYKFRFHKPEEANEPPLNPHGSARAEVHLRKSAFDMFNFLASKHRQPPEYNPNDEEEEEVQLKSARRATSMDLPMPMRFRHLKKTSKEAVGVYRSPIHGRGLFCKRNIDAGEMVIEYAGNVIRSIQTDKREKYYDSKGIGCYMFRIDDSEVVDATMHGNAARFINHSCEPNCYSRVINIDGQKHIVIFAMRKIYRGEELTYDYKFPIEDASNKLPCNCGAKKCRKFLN
UniProt O15047: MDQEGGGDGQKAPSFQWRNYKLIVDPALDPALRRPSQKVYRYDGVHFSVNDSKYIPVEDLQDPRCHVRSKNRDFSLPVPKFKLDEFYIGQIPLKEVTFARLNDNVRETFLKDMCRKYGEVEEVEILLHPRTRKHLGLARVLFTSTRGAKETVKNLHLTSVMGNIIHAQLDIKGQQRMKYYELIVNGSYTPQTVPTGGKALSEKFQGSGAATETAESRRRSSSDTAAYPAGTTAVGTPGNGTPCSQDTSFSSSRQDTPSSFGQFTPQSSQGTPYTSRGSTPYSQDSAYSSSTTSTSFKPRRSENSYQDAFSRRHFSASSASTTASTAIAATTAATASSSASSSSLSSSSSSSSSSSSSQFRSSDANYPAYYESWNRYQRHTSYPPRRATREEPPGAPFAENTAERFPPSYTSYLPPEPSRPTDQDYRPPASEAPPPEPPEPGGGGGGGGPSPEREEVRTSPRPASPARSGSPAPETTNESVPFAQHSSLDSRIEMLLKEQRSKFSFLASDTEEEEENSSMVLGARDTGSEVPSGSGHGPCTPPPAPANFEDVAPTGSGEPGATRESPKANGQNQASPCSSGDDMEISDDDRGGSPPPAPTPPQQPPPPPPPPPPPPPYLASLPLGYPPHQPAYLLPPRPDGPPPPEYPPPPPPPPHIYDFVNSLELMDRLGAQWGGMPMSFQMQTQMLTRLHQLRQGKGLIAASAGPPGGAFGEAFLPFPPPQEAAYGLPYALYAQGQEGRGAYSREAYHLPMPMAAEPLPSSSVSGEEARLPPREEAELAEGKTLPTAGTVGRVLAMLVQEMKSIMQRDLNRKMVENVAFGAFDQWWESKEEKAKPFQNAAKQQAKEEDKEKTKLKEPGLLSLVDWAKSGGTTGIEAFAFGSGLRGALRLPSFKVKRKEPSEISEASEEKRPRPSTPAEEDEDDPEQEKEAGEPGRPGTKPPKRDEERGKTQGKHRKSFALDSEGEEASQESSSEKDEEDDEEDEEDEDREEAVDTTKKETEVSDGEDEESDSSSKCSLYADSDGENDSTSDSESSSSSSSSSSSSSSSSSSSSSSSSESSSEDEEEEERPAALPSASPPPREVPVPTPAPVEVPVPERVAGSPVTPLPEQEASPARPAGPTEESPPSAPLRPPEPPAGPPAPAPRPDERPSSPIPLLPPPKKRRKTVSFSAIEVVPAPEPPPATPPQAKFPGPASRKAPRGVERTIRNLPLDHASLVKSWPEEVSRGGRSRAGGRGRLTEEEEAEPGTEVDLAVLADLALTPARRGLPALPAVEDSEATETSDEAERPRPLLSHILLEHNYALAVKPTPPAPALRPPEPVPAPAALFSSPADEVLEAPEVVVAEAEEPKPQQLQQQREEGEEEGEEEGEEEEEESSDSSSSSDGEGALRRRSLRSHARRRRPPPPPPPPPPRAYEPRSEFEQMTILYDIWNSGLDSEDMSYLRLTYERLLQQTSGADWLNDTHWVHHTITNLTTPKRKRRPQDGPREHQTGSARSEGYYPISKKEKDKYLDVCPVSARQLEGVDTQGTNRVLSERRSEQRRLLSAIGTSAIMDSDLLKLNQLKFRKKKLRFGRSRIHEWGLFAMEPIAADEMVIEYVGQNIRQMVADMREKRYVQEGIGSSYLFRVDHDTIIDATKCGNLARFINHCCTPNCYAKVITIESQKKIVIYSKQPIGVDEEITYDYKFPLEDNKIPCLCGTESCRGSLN

Results are given in words; binding and its absence hold for the method and conditions named. Binding seen in cells or lysates may run through a third protein. Tags and fused reporters may be left off the sequences shown.

Take “MLL1 (from UniProt Q03164 1-3969) (enzyme)”: the binding result is “no binding”.

In the case of “SETD1A (from UniProt O15047 1-1707) (enzyme)”, the binding entry is “no binding”.

For the origin of these results see article PMC3400561.
